Data source: PubChem BioAssay AID602196 (INSERM, 2012)
Purpose: 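Knock-downs that protect lung cancer cells from cisplatin or sensitise them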. Cell system: human A549 lung cancer cells. Reagent: siRNA pair against human genes. Time to read-out: 48 h transfection before cisplatin; time from cisplatin to read-out not stated. Treatment: cisplatin at a dose killing half of control-siRNA cells; exact dose and duration not given. Measurement: 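Shift in cisplatin death relative to control siRNA, from -50 (all cells die) to +50 (no cells die); siRNAs harmful on their own scored 0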. Direction: two-siRNA summed score (-2 to +2): higher = both siRNAs protect from cisplatin killing; -2 means both sensitise. Hit rule: 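siRNAs harmful alone (LDH or WST-1) get 0; others get +1 for less and -1 for more cisplatin killing; genes are active when the two siRNAs give the same sign, summing to ±2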. Meaning of the calls: active = both siRNAs shift cisplatin killing the same way; inactive = no consistent shift, or siRNA harmful alone.
The deposit covers about 23,000 reagents; this is a part drawn at random. Over the whole deposit, 455 (2%) got an active call. 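Active includes both protection and sensitisation; some change values fall well beyond the stated -50 to +50 range.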 A number with no mark means an inactive call. The numbers tell different reagents against one gene apart. Further read-outs or replicates are left out here. Not given: the amount of reagent.

Depletion of WDR36 (GeneID 134430) came out at: two-siRNA summed score (-2 to +2) = 1. EIF1AX (GeneID 1964) scored two-siRNA summed score (-2 to +2) = 0. Knock-down of OR51Q1 (GeneID 390061) came out at: two-siRNA summed score (-2 to +2) = 0. With knock-down of NKIRAS2 (GeneID 28511) the results were two-siRNA summed score (-2 to +2) = 0. Silencing of AP4E1 (GeneID 23431) gave: two-siRNA summed score (-2 to +2) = 0. LOC401954 gave two-siRNA summed score (-2 to +2) = 0.

Knock-down of OPN1LW (GeneID 5956) resulted in: two-siRNA summed score (-2 to +2) = -1. RAP2B (GeneID 5912) gave two-siRNA summed score (-2 to +2) = 0. For MCU (GeneID 90550), the entry reads two-siRNA summed score (-2 to +2) = 0. Knock-down of LRRC9 (GeneID 341883) gave: two-siRNA summed score (-2 to +2) = 0. LOC389036 gave two-siRNA summed score (-2 to +2) = 1. With knock-down of STAC2 (GeneID 342667), the record shows two-siRNA summed score (-2 to +2) = 0.

Against ZNF239 (GeneID 8187), the values are two-siRNA summed score (-2 to +2) = 0. With knock-down of RGS10 (GeneID 6001), the record shows two-siRNA summed score (-2 to +2) = -1. After knock-down of SCGN (GeneID 10590) the results were two-siRNA summed score (-2 to +2) = 0. For LOC440083, the entry reads two-siRNA summed score (-2 to +2) = 0. LOC115131 gave two-siRNA summed score (-2 to +2) = 1. MAP3K4 (GeneID 4216) showed two-siRNA summed score (-2 to +2) = 0.

For GRK4 (GeneID 2868) the deposit lists two-siRNA summed score (-2 to +2) = 0. CCDC17 (GeneID 149483) showed two-siRNA summed score (-2 to +2) = 0. ATP4B (GeneID 496) #1 scored two-siRNA summed score (-2 to +2) = 1. ATP4B (GeneID 496) #2 scored two-siRNA summed score (-2 to +2) = 1. RORB (GeneID 6096) showed two-siRNA summed score (-2 to +2) = 0. GP6 (GeneID 51206) gave two-siRNA summed score (-2 to +2) = 0.

Against ANTXR1 (GeneID 84168) the deposit lists two-siRNA summed score (-2 to +2) = 0. Knock-down of LOC441500 came out at: two-siRNA summed score (-2 to +2) = 0. FMR1NB (GeneID 158521) scored two-siRNA summed score (-2 to +2) = 0. For ETFBKMT (GeneID 254013), the values are two-siRNA summed score (-2 to +2) = 0. With knock-down of TMEM31 (GeneID 203562) the results were two-siRNA summed score (-2 to +2) = 0. For KRT3 (GeneID 3850), the entry reads two-siRNA summed score (-2 to +2) = 0.

GYPA (GeneID 2993) showed two-siRNA summed score (-2 to +2) = 0.
